Data as given in the supplement of paper PMC4604168 (melanoma cell lines).
Some of the results follow. Repeats are few or missing, and single values can be far off.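 The apoptosis fraction was the count of cleaved-PARP antibody-stained nuclei relative to all DNA-stained nuclei, imaged in 1,536-well plates. Screening doses were set so most cells survived, and baseline and induced cleaved-PARP levels vary greatly across cell lines.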

Experiments:
Assay in all cases: cleaved PARP positive nuclei fraction relative to DMSO control; melanoma cells; higher = more apoptosis
Details in all cases: library dose: low library concentration; 72 h
MZ2-MEL = system: MZ2-MEL
MeWo = system: MeWo
RPMI7951 = system: RPMI7951
RVH-421 = system: RVH-421
SkMel28 = system: SkMel28
SkMel30 = system: SkMel30
SkMel5 = system: SkMel5
UACC257 = system: UACC257
UACC62 = system: UACC62

SMILES | cleaved PARP positive nuclei fraction (MZ2-MEL) [%] | cleaved PARP positive nuclei fraction (MeWo) [%] | cleaved PARP positive nuclei fraction (RPMI7951) [%] | cleaved PARP positive nuclei fraction (RVH-421) [%] | cleaved PARP positive nuclei fraction (SkMel28) [%] | cleaved PARP positive nuclei fraction (SkMel30) [%] | cleaved PARP positive nuclei fraction (SkMel5) [%] | cleaved PARP positive nuclei fraction (UACC257) [%] | cleaved PARP positive nuclei fraction (UACC62) [%]
NCC(=O)Nc1ccc(-n2nc(C(F)(F)F)cc2-c2ccc3c(ccc4ccccc43)c2)cc1 + COc1ccc(COc2ccc(Cc3cnc(N)nc3N)cc2OC)cc1 [GW2580] (first compound 1 µM, partner dose 1 µM) | 58.2 | 403 | 51.6 | 41.4 | 185 | 109 | 127 | 77.8 | 73.8
c1cc(-c2cnn3cc(-c4ccc(OCCN5CCCCC5)cc4)cnc23)ccn1 [Dorsomorphin] + COc1cc(N2CCC(N3CCN(C)CC3)CC2)ccc1Nc1ncc(Cl)c(Nc2ccccc2S(=O)(=O)C(C)C)n1 [NVP-TAE684] (first compound 0.4 µM, partner dose 0.08 µM) | 100 | 27.3 | 76.7 | 81.6 | 92.8 | 86.9 | 117 | 102 | 128
COc1cc2c(Oc3ccc4[nH]c(C)cc4c3F)ncnc2cc1OCCCN1CCCC1 [cediranib] + N#Cc1c(O)c2c(-c3ccc(-c4ccccc4O)cc3)csc2[nH]c1=O [A769662] (first compound 0.4 µM, partner dose 2 µM) | 41 | 95.5 | 121 | 93.2 | 121 | 128 | 54.9 | 187 | 39.2
COc1ccc2c(c1)CCC1C2CCC2(C)C(NCCCCCCN3C(=O)C=CC3=O)CCC12 (stereo unspecified) + O=c1cc(-c2cccc3c2Sc2ccccc2S3)oc(N2CCOCC2)c1 [KU55933] (first compound 0.4 µM, partner dose 1 µM) | 147 | 57.9 | 236 | 37.6 | 152 | 122 | 57.9 | 70.9 | 43
c1cc(-c2cnn3cc(-c4ccc(OCCN5CCCCC5)cc4)cnc23)ccn1 [Dorsomorphin] + CC(C)CCN1c2nc(Nc3cc(F)c(O)c(F)c3)ncc2N(C)C(=O)C1C [BID1870] (first compound 0.4 µM, partner dose 0.2 µM) | 121 | 120 | 77.2 | 50.2 | 28.8 | 133 | 55.3 | 95.1 | 79.3
COC(=O)c1sccc1S(=O)(=O)Nc1ccc(Nc2ccccc2)cc1OC + COc1cc2ncnc(Nc3ccc(Oc4ccccc4)cc3)c2cc1OC [SrcI1] (first compound 1 µM, partner dose 2 µM) | 181 | 73.6 | 37.1 | 37.5 | 94.1 | 20.3 | 56.3 | 59.1 | 347
NCC(=O)Nc1ccc(-n2nc(C(F)(F)F)cc2-c2ccc3c(ccc4ccccc43)c2)cc1 + CCN(CC)CCCCNc1ncc2cc(-c3cc(OC)cc(OC)c3)c(NC(=O)NC(C)(C)C)nc2n1 [PD173074] (first compound 1 µM, partner dose 0.1 µM) | 114 | 89.5 | 141 | 235 | 141 | 132 | 39.7 | 80.9 | 36.7
COc1cc2ncnc(Nc3ccc(Oc4ccccc4)cc3)c2cc1OC + Oc1nc(-c2ccc(C(F)(F)F)cc2)nc2c1CSCC2 [XAV939] (first compound 2 µM, partner dose 2 µM) | 202 | 112 | 74.2 | 47.8 | 175 | 31.6 | 86.4 | 170 | 141
CCN(CC)CCCCNc1ncc2cc(-c3cc(OC)cc(OC)c3)c(NC(=O)NC(C)(C)C)nc2n1 + Oc1nc(-c2ccc(C(F)(F)F)cc2)nc2c1CSCC2 [XAV939] (first compound 0.1 µM, partner dose 2 µM) | 44.1 | 89.7 | 84.5 | 25.5 | 121 | 38.5 | 78.4 | 277 | 171
O=C(Nc1ccccc1)c1cc([N+](=O)[O-])ccc1Cl + COc1cc2ncnc(Nc3ccc(Oc4ccccc4)cc3)c2cc1OC [SrcI1] (first compound 2 µM, partner dose 2 µM) | 183 | 70.5 | 66.1 | 18.6 | 120 | 93 | 18.1 | 80.1 | 34.7
CN(NC(=O)CC(=O)NN(C)C(=S)c1ccccc1)C(=S)c1ccccc1 + COc1cc(N2CCC(N3CCN(C)CC3)CC2)ccc1Nc1ncc(Cl)c(Nc2ccccc2S(=O)(=O)C(C)C)n1 [NVP-TAE684] (first compound 0.006 µM, partner dose 0.08 µM) | 82.7 | 80 | 81 | 313 | 268 | 68.6 | 210 | 237 | 65.7
COc1cc2c(Oc3ccc4[nH]c(C)cc4c3F)ncnc2cc1OCCCN1CCCC1 [cediranib] + Oc1nc(-c2ccc(C(F)(F)F)cc2)nc2c1CSCC2 [XAV939] (first compound 0.4 µM, partner dose 2 µM) | 78.9 | 27 | 91.4 | 91.4 | 91.8 | 27.5 | 37.4 | 104 | 39.9
O=C(Nc1ccccc1)c1cc([N+](=O)[O-])ccc1Cl + CCN(CC)CCCCNc1ncc2cc(-c3cc(OC)cc(OC)c3)c(NC(=O)NC(C)(C)C)nc2n1 [PD173074] (first compound 2 µM, partner dose 0.1 µM) | 120 | 50.6 | 121 | 41.8 | 100 | 111 | 62.2 | 30 | 81.4
COc1ccc(COc2ccc(Cc3cnc(N)nc3N)cc2OC)cc1 + O=C1NC(=O)/C(=C/c2ccc(-c3ccc(F)cc3O)o2)S1 [AS252424] (first compound 1 µM, partner dose 1 µM) | 79.7 | 110 | 147 | 68.2 | 52 | 33.1 | 104 | 116 | 69.7
COc1ccc(COc2ccc(Cc3cnc(N)nc3N)cc2OC)cc1 + Oc1cc(-c2nc(-c3ccccc3)[nH]c2-c2ccncc2)ccc1Cl [L779450] (first compound 1 µM, partner dose 0.2 µM) | 36.3 | 33.9 | 79.4 | 82 | 105 | 27.3 | 27.6 | 137 | 105
O=S(=O)(c1ccccc1)N(CC(F)(F)F)c1ccc(C(O)(C(F)(F)F)C(F)(F)F)cc1 + CC(C)CCN1c2nc(Nc3cc(F)c(O)c(F)c3)ncc2N(C)C(=O)C1C [BID1870] (first compound 1.4 µM, partner dose 0.2 µM) | 35.5 | 78.9 | 78.4 | 22.3 | 146 | 31.6 | 77.8 | 158 | 40.6
CCc1ccc(CCOc2ccc(CC3SC(=O)NC3=O)cc2)nc1 (stereo unspecified) [pioglitazone] + Oc1nc(-c2ccc(C(F)(F)F)cc2)nc2c1CSCC2 [XAV939] (first compound 2 µM, partner dose 2 µM) | 29.4 | 54.8 | 167 | 46.5 | 83.7 | 155 | 35.1 | 97.5 | 37.6
COc1cc2c(Oc3ccc4[nH]c(C)cc4c3F)ncnc2cc1OCCCN1CCCC1 [cediranib] + COc1ccc2c(c1)CCC1C2CCC2(C)C(NCCCCCCN3C(=O)C=CC3=O)CCC12 [U73122] (first compound 0.4 µM, partner dose 0.4 µM) | 115 | 44.4 | 111 | 56.2 | 103 | 58 | 52.7 | 80.4 | 127
COc1ccc(-c2ccc3c(N4CCOCC4)nc(N4C[C@@H](C)O[C@@H](C)C4)nc3n2)cc1CO + COc1cc(N2CCC(N3CCN(C)CC3)CC2)ccc1Nc1ncc(Cl)c(Nc2ccccc2S(=O)(=O)C(C)C)n1 [NVP-TAE684] (first compound 0.02 µM, partner dose 0.08 µM) | 85 | 64.7 | 96.6 | 86 | 158 | 17.1 | 34.7 | 153 | 269
CCc1ccc(CCOc2ccc(CC3SC(=O)NC3=O)cc2)nc1 (stereo unspecified) [pioglitazone] + COc1ccc(COc2ccc(Cc3cnc(N)nc3N)cc2OC)cc1 [GW2580] (first compound 2 µM, partner dose 1 µM) | 21.1 | 110 | 93.3 | 70 | 66.3 | 99 | 27.8 | 50.4 | 28.1
c1cc(-c2cnn3cc(-c4ccc(OCCN5CCCCC5)cc4)cnc23)ccn1 [Dorsomorphin] + O=c1cc(-c2cccc3c2Sc2ccccc2S3)oc(N2CCOCC2)c1 [KU55933] (first compound 0.4 µM, partner dose 1 µM) | 84.5 | 28.9 | 113 | 26 | 88.7 | 45.3 | 198 | 141 | 314
COc1ccc2c(c1)CCC1C2CCC2(C)C(NCCCCCCN3C(=O)C=CC3=O)CCC12 (stereo unspecified) + CC(C)CCN1c2nc(Nc3cc(F)c(O)c(F)c3)ncc2N(C)C(=O)C1C [BID1870] (first compound 0.4 µM, partner dose 0.2 µM) | 138 | 52.4 | 98.3 | 87.5 | 76.1 | 53.2 | 61.1 | 131 | 301
NCC(=O)Nc1ccc(-n2nc(C(F)(F)F)cc2-c2ccc3c(ccc4ccccc43)c2)cc1 + COc1cc2ncnc(Nc3ccc(Oc4ccccc4)cc3)c2cc1OC [SrcI1] (first compound 1 µM, partner dose 2 µM) | 144 | 134 | 69.5 | 58.1 | 167 | 865 | 33.9 | 58.8 | 62.6
O=C1NC(=O)/C(=C/c2ccc(-c3ccc(F)cc3O)o2)S1 + CC(C)CCN1c2nc(Nc3cc(F)c(O)c(F)c3)ncc2N(C)C(=O)C1C [BID1870] (first compound 1 µM, partner dose 0.2 µM) | 76.6 | 347 | 39.5 | 125 | 16.4 | 19 | 40.6 | 6.21 | 59.4

Reprinted at random: two entries already listed, in no set order.
SMILES | cleaved PARP positive nuclei fraction (MZ2-MEL) [%] | cleaved PARP positive nuclei fraction (MeWo) [%] | cleaved PARP positive nuclei fraction (RPMI7951) [%] | cleaved PARP positive nuclei fraction (RVH-421) [%] | cleaved PARP positive nuclei fraction (SkMel28) [%] | cleaved PARP positive nuclei fraction (SkMel30) [%] | cleaved PARP positive nuclei fraction (SkMel5) [%] | cleaved PARP positive nuclei fraction (UACC257) [%] | cleaved PARP positive nuclei fraction (UACC62) [%]
c1cc(-c2cnn3cc(-c4ccc(OCCN5CCCCC5)cc4)cnc23)ccn1 [Dorsomorphin] + COc1cc(N2CCC(N3CCN(C)CC3)CC2)ccc1Nc1ncc(Cl)c(Nc2ccccc2S(=O)(=O)C(C)C)n1 [NVP-TAE684] (first compound 0.4 µM, partner dose 0.08 µM) | 100 | 27.3 | 76.7 | 81.6 | 92.8 | 86.9 | 117 | 102 | 128
O=C1NC(=O)/C(=C/c2ccc(-c3ccc(F)cc3O)o2)S1 + CC(C)CCN1c2nc(Nc3cc(F)c(O)c(F)c3)ncc2N(C)C(=O)C1C [BID1870] (first compound 1 µM, partner dose 0.2 µM) | 76.6 | 347 | 39.5 | 125 | 16.4 | 19 | 40.6 | 6.21 | 59.4
